Article PMC4357730

The chains behind the UniProt entries cited, without tags or fusion partners.
UniProt Q13569, whole entry R275A: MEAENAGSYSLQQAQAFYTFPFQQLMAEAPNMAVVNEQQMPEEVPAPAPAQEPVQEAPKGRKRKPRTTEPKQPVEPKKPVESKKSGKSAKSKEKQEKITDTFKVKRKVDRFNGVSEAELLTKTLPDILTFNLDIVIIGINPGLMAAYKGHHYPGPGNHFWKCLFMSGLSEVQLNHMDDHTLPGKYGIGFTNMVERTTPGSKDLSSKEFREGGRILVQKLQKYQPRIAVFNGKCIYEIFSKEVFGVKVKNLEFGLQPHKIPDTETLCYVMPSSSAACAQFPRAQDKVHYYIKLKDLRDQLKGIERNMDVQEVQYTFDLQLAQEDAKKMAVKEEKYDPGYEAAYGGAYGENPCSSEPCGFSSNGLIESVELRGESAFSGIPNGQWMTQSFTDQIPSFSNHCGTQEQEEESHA

Molecular target: hTDG-R275A (human) (UniProt Q13569)
Assay: 2-AP fluorescence base flipping
Settings: 5 uM protein, 170 nM DNA, no substantial increase (less flipping, not shown as loss of binding); 2-AP at position 10 (written A); dUF at position 11 (written U); AFM: 25 mM HEPES pH 7.5, 25 mM Na acetate, 10 mM Mg acetate, RT; 2-AP hTDG: 20 mM HEPES pH 7.0, 0.2 mM EDTA, 2.5 mM MgCl2, 100 mM NaCl, 25 C; recombinant protein; residues 1-410; label: 2-AP

## ATGCATGCCAUGAGTCTAGAGG / CCTCTAGACTCGTGGCATGCAT [2-AP G:UF (G/J)]
  binding signal (2-AP intensity change (CPS)): 9370

The direction of at least one scale is not stated here.
